Screening data

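Human lymphoblastoid line LYMP2-006, with cell viability measured as cellular ATP by luminescence after 24 hours of compound exposure.
Each compound was titrated in a series from 0.59 nM up to about 92 µM.
Potency is the fitted AC50 for loss of viability; a lower value means stronger cytotoxicity.
Calls follow curve class and fitted AC50; inconclusive covers weak, poorly fitted, partial or top-dose-only curves (score 1–39).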

Values are in nM.
All entries here are filed as inconclusive.
Only part of the assay is shown, chiefly results filed as inconclusive.
Potencies fitted to partial, single-point or poorly fitting curves are rough.
Some entries filed as inconclusive have a full curve.
The first word of each remark tells which way the curve ran; it can be opposite to the aim of the assay.
Activity scores are not listed here.
An entry listed twice with the same setting is a separate test.

With Cn1cnc([N+](=O)[O-])c1Sc1ncnc2nc[nH]c12 the assay gave Potency 25118 nM (cytotoxic, partial curve, poor fit).
With Cc1c2oc3c(C)ccc(C(=O)N[C@@H]4C(=O)N[C@H](C(C)C)C(=O)N5CCC[C@H]5C(=O)N(C)CC(=O)N(C)[C@@H](C(C)C)C(=O)O[C@@H]4C)c3nc-2c(C(=O)N[C@@H]2C(=O)N[C@H](C(C)C)C(=O)N3CCC[C@H]3C(=O)N(C)CC(=O)N(C)[C@@H](C(C)C)C(=O)O[C@@H]2C)c(N)c1=O the assay gave Potency 3.2 nM (cytotoxic, full curve, poor fit).
With O=c1cc(-c2ccc(O)cc2)oc2cc(O)cc(O)c12 the assay gave Potency 79432 nM (cytotoxic, partial curve, poor fit).
With COc1cc2c(c(OC)c1OC)-c1ccc(OC)c(=O)cc1[C@@H](NC(C)=O)CC2 the assay gave Potency 39.8 nM (cytotoxic, full curve).
With CC[C@H](C)C(=O)O[C@H]1C[C@@H](C)C=C2C=C[C@H](C)[C@H](CC[C@@H]3C[C@@H](O)CC(=O)O3)[C@H]21 the assay gave Potency 25118 nM (cytotoxic, partial curve, poor fit).
With COC(=O)[C@H]1[C@H]2C[C@@H]3c4[nH]c5cc(OC)ccc5c4CCN3C[C@H]2C[C@@H](OC(=O)c2cc(OC)c(OC)c(OC)c2)[C@@H]1OC the assay gave Potency 50118 nM (cytotoxic, partial curve, poor fit).
With Nc1ccccc1N the assay gave Potency 31622 nM (cytotoxic, partial curve, poor fit).
With Oc1ccc(Cl)cc1Sc1cc(Cl)ccc1O the assay gave Potency 39810 nM (cytotoxic, partial curve, poor fit).
With CC(C)(C)c1cc(O)ccc1O the assay gave Potency 39810 nM (cytotoxic, partial curve, poor fit).
With COc1cccc2c1C(=O)c1c(O)c3c(c(O)c1C2=O)C[C@@](O)(C(C)=O)C[C@@H]3O[C@H]1C[C@H](N)[C@H](O)[C@H](C)O1 the assay gave Potency 7943 nM (cytotoxic, full curve, poor fit).
With COc1ccc2[nH]cc(CCNC(C)=O)c2c1 the assay gave Potency 50118 nM (cytotoxic, partial curve, poor fit).
With C[C@H]1O[C@@H](O[C@H]2[C@@H](O)C[C@H](O[C@H]3[C@@H](O)C[C@H](O[C@H]4CC[C@@]5(C)[C@H](CC[C@@H]6[C@@H]5C[C@@H](O)[C@]5(C)[C@@H](C7=CC(=O)OC7)CC[C@]65O)C4)O[C@@H]3C)O[C@@H]2C)C[C@H](O)[C@@H]1O the assay gave Potency 158.5 nM (cytotoxic, full curve).
With C=C(CC)C(=O)c1ccc(OCC(=O)O)c(Cl)c1Cl the assay gave Potency 50118 nM (cytotoxic, partial curve, poor fit).
With COC(=O)C1=C(C)NC(C)=C(C(=O)OC)C1c1ccccc1[N+](=O)[O-] the assay gave Potency 79432 nM (cytotoxic, single point).
With Oc1cc(Cl)c(Cl)c(Cl)c1 the assay gave Potency 79432 nM (cytotoxic, single point).
With COc1cc2c(c(OC)c1OC)-c1ccc(OC)c(=O)cc1[C@@H](NC(C)=O)CC2 the assay gave Potency 50.1 nM (cytotoxic, full curve).
With N=C(N)c1ccc(OCCCCCOc2ccc(C(=N)N)cc2)cc1 the assay gave Potency 31622 nM (cytotoxic, partial curve, poor fit).
With Cc1ccc(N)c(N)c1 the assay gave Potency 31622 nM (cytotoxic, partial curve, poor fit).
With COc1cccc2c1C(=O)c1c(O)c3c(c(O)c1C2=O)C[C@@](O)(C(=O)CO)C[C@@H]3O[C@H]1C[C@H](N)[C@H](O)[C@H](C)O1 the assay gave Potency 398.1 nM (cytotoxic, full curve, poor fit).
With Oc1c(Cl)cc(Cl)c(Cl)c1Cc1c(O)c(Cl)cc(Cl)c1Cl the assay gave Potency 15848 nM (cytotoxic, full curve).
With NC(=O)c1ncn([C@@H]2O[C@H](CO)[C@@H](O)[C@H]2O)n1 the assay gave Potency 25118 nM (cytotoxic, partial curve, poor fit).
With CCCCCCCCCc1ccc(O)cc1 the assay gave Potency 50118 nM (cytotoxic, partial curve, poor fit).
With CCNS(=O)(=O)c1ccc(C)cc1 the assay gave Potency 39810 nM (rising, single point).
With O=CC(=O)c1ccccc1 the assay gave Potency 50118 nM (cytotoxic, partial curve, poor fit).
With C[C@]12C/C(=C/O)C(=O)C[C@@H]1CC[C@@H]1[C@@H]2CC[C@@]2(C)[C@H]1CC[C@]2(C)O the assay gave Potency 39810 nM (cytotoxic, partial curve, poor fit).
With COP(=O)(OC)OC=C(Cl)Cl the assay gave Potency 10000 nM (cytotoxic, full curve).
With CC(C)(C)c1cc(O)ccc1O the assay gave Potency 50118 nM (cytotoxic, partial curve, poor fit).
With CC(C)(C)C(=O)C1C(=O)c2ccccc2C1=O the assay gave Potency 50118 nM (cytotoxic, partial curve, poor fit).
With O=[N+]([O-])c1ccc(CCO)cc1 the assay gave Potency 25118 nM (cytotoxic, full curve, poor fit).
With c1cnc2c(c1)ccc1cccnc12 the assay gave Potency 7943 nM (cytotoxic, full curve, poor fit).
With O=C1C=CC(=O)C=C1 the assay gave Potency 25118 nM (cytotoxic, full curve).
With Oc1ccccc1O the assay gave Potency 19952 nM (cytotoxic, partial curve, poor fit).

The results are deposited in PubChem (AID978; NCATS, 2007).